Measured values published in PubChem BioAssay AID624134 (Broad Institute, 2012).
About 1,100 (69%) of roughly 1,600 compounds were called active. So high a share suggests a set chosen from earlier hits. This is a selection; strong and weak results do not stand in their true shares. Measured potencies and affinities stand elsewhere. Results filed as inconclusive are left out.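 Rule for the calls: active = signal drop with fitted half-maximal concentration no higher than twice the top valid tested concentration; inconclusive = flat curve with 30 to 70% signal loss, or poor fit; inactive = the rest, including signal rises and flat curves within 30%.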

Assay: HepG2 cell cytotoxicity, dose response, cytotoxicity control for Shn3 inhibitor project, CellTiter-Glo, cherry-picked (AID 624134);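 note: 0% = median of neutral control wells and -100% = median of positive control wells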
Details: HepG2 viability, CellTiter-Glo ATP luminescence, 48 h; at 35 µM (top of the series)

Structure (SMILES) | activity change, negative = cytotoxicity
O=C(NCCCn1ccnc1)C(=O)NCC1OCCCN1S(=O)(=O)c1ccccc1 (stereo not drawn) | inactive: 3.35%
Cc1cc(CN2CCOCC2)c(O)c(C2(C)CCCCC2)c1 | inactive: 12.9%
CCCc1nc([N+](=O)[O-])c(S(=O)(=O)c2ccccc2)n1CC(C)C | inactive: -25.5%
Cc1c(CCOC(=O)CC23CC4CC(CC(C4)C2)C3)sc[n+]1CC(=O)c1ccc(Br)cc1 | inactive: -13.8%
Cc1cc(=O)oc2c3c(cc(OCC(=O)Nc4ccc(CCO)cc4)c12)OC(C)(C)CC3 | inactive: -4.82%
COCCn1c(SCC(=O)/C=C2\N(C)c3ccccc3C2(C)C)nnc1-c1ccncc1 | inactive: -22%
CC1=NOC(=O)/C1=C\c1ccc(-c2cc(Cl)ccc2Cl)o1 | inactive: -3.66%
COc1ccc(C(=O)OCC(=O)Nc2ccc3[nH]c(=O)[nH]c3c2)cc1 | inactive: -7.95%
CCCCCCCCNC(C)C(O)c1ccc(SC(C)C)cc1 (stereo not drawn) | -96.2%
O=C1CC(c2ccccc2)CC(O)=C1C=Nc1cccc(Cl)c1 (stereo not drawn) | inactive: -7.86%
COc1ccccc1-n1cc([C@@H]2C[C@H]3CN(c4ccccc4)C(=O)[C@]34CCCN24)cn1 | inactive: -18.9%
CCCCCCC#Cc1ccc2c(c1)COc1c3ccccc3nn1-2 | inactive: -0.219%
Cc1ccc(-c2nc3ncccc3o2)cc1NC(=O)c1sc2ccccc2c1Cl | inactive: -3.4%

2 records drawn at random from those above, as already listed:
Structure (SMILES) | activity change, negative = cytotoxicity
COc1ccccc1-n1cc([C@@H]2C[C@H]3CN(c4ccccc4)C(=O)[C@]34CCCN24)cn1 | inactive: -18.9%
COc1ccc(C(=O)OCC(=O)Nc2ccc3[nH]c(=O)[nH]c3c2)cc1 | inactive: -7.95%
